Source: US12507721B2, “Ready-to-use parenteral nutrition formulation” (BAXTER INTERNATIONAL INC., priority 2021, dated 2025)
For at least one compound, name, drawing or mass did not settle the structure. Some compounds share one wording; it may come from a single statement.

Experiments:
[1] = Storage of Glucose Batch 1 at 40° C./25% RH for 6 months; format: physicochemical; details: irrespective of C0
Description: In a next step, the stability of vitamin B12 was examined in Glucose Batch 1 which seemed to be the most promising based on the results shown in Table 7. Accordingly, several bags were stored at 40° C./25% RH for 6 months (T6M). Batch Glucose 1 was analyzed at T6M to revisit the presence of vitamin B12 in either its cyanocobalamin or hydroxocobalamin form. In order to test the validity of the test, vitamins B1, B3 and B6 were tested together with vitamin B12 both after sterilization and then throughout shelf life.

[2] = Stability of vitamin B12 during sterilization at different C0; format: physicochemical; details: Batch 2: 35% glucose, B12 added as hydroxocobalamin; for 20 min. recovery: C0 20 min; for 120 min. recovery: C0 120 min
Description: Therefore, in a first step, exemplary glucose solutions and lipid emulsions each containing vitamin B12 were submitted to different amounts of C0 during the sterilization step to analyze the impact of C0 on the stability of vitamin B12. Several C0 values were targeted and a wide range, from 20 min to 120 min, was screened to understand the correlation between C0 and the degradation of vitamin B12 in different media. Bags of lipid emulsion were produced, wherein the 5% olive-based emulsion contained vitamin B12 (cyanocobalamin form) at a concentration of 1 dd in 25 mL and, in one case, EDTA in a concentration of 0.1% w/v of the final emulsion (see Table 6). The glucose solutions used for the tests contained vitamin B12 in cyanocobalamin form or hydroxocobalamin form at a concentration of 1 dd in 400 mL. The heat sensitivity of the vitamin was assessed through the analysis of the respective degradation profile.
Five (5) sterilization cycles at 123.5° C. were used wherein five different C0 values were targeted. For each cycle, bags of glucose with vitamin and bags with lipid emulsions comprising vitamin B12 were produced as described above in Table 6 and used. Eight bags were used for each Batch at a C0 of 20 min, 45 min, 70 min, 95 min and 120 min.
The solutions were analyzed unsterilized and sterilized for each cycle. Before each first cycle of the day, an empty cycle at 123.5° C. for 15 minutes exposure was run. In that way, the heating phase of the cycle stayed equivalent for every cycle run. For the entire study, all bags used were multi-layer, non-PVC bags having a volume of 100 mL. The overpouching parameters were: vacuum=85%; gas=85%; sealing=7.5 sec. All cycles were set up at 123.5° C.
Bags were then analyzed at the respective points in time to evaluate the impact on the degradation of vitamin B12. The quantitative determination of vitamin B12 in the form of cyano- and hydroxocobalamins was done by Ultra Performance Liquid Chromatography (UPLC), which separates components of a solution by partitioning of the analytes between a mobile liquid phase and a liquid stationary phase (reversed phase mode). The resulting difference in elution time allows to independently detect the different analytes. The system used was a Waters ACQUITY UPLC I-class coupled with a MS/MS Waters ESI Zspray detector. The column used was ACQUITY UPLC HSS T3 (1.8 μm, 2.1×100 mm) from Waters. All solutions containing cyanocobalamin and hydroxocobalamin are extremely sensitive to light. Accordingly, all preparations containing these compounds were prepared freshly and kept in an amber volumetric flask. Also, the analysis was done diligently and without unnecessary interruptions. The mobile phases were mM ammonium bicarbonate (A1) and acetonitrile (25 mL of acetonitrile in 475 mL of water for chromatography) (B1). Standard stock solutions of cyanocobalamin and hydroxocobalamin were prepared in acetate buffer. Test solutions were prepared by diluting the samples with purified water (all in amber volumetric flasks). The gradient used was optimized to separate hydroxocobalamin and cyanocobalamin from other constituents of the matrix (Vit B2, B5, FSV, emulsion), see Table 7. The method is known in the art and has been described, for example, in Hampel et al, Journal of Chromatography B, 903, 7-12 (2012) or in Jiang et al., Waters LC/MS Analysis of Vitamin B12, Application NOTE, 2003.

[3] = Selenite stability in oxygen semi-permeable and oxygen impermeable films; format: physicochemical
[4] = Impact of DO on selenium stability; mix of 9 trace elements; format: physicochemical; details: mix of 9 TE, pH 2.2, 200 mM malic acid, glass bottle (about 3 ppm DO), heat sterilized
Description: The impact of oxygen seems of major importance in the stability of selenite containing trace element formulations. […] To confirm this hypothesis, a regression test was performed between Se assay results and log(dissolved oxygen results). Only sterilized samples stored at 40° C. were considered as the sterilization and storage at high temperature seem to both increase the Se degradation.
The presence of oxygen promotes selenite stability. To ensure that it is not deleterious to another TE the stability of a mix of the 9 TE of interest (i.e. Zn, Cu, Cr, Mo, Mn, Fe, I, F & Se) was evaluated at pH 2.2 with 200 mM of malic acid (to ensure iodide stability) and stored in a glass bottle (so containing about 3 ppm of dissolved oxygen). The solution was heat sterilized and stored 6 months at 40° C. or 5° C. (T6M 40° C. and T6M 5° C., respectively).

[5] = Selenium stability in trace element solutions with selenate, selenomethionine or selenite; details: TE formulation pH 2.2, heat sterilized, conditions not optimized for DO, FIGS. 9-11
Description: (§1) Timepoint 0 corresponds to the results of TE dosage right after sterilization. […] Timepoints 1, 3 and 6 correspond to the results of TE dosage after 1 month, 3 months and 6 months storage at 40° C./25% RH.
as §1, §1
For the three tested solutions containing different forms of selenium, the selenium is mixed with other TE (Zn, Cu, Mn, F, I, Mo, Cr, Fe), which were introduced as chloride salts. The solutions were acidified to pH 2.2 using malic acid and underwent terminal heat sterilization prior to storage.

SMILES | recovery at T6M [1] | 20 min. recovery [2] | 20 min. recovery ([2]; listed as Hydroxocobalamin) | 45 min. recovery ([2]; C0 45 min) | 70 min. recovery ([2]; C0 70 min) | 95 min. recovery ([2]; C0 95 min) | 120 min. recovery [2] | 120 min. recovery ([2]; listed as HC) | Unsterilized recovery ([2]; unsterilized) | Recovery ([3]; EU2-F (oxygen-impermeable) bag, FIG. 7B) | time after which recovery fell below 80% ([3]; EU-2S (semi-permeable) bag, oxygen absorber, pH 3.0, 100 mM malic acid, FIG. 7A) | recovery rate ([3]; as long as DO does not decrease below 0.5 ppm, over 5 months) | Recovery ([4]; T6M 5° C.) | Recovery ([4]; T6M 40° C.) | selenium concentration during storage [5]
C/C1=C2/[N-][C@H]([C@H](CC(N)=O)[C@@]2(C)CCC(=O)NC[C@@H](C)OP(=O)([O-])O[C@H]2[C@@H](O)[C@@H](n3cnc4cc(C)c(C)cc43)O[C@@H]2CO)[C@]2(C)N=C(/C(C)=C3N=C(/C=C4N=C1[C@@H](CCC(N)=O)C\4(C)C)[C@@H](CCC(N)=O)[C@]\3(C)CC(N)=O)[C@@H](CCC(N)=O)[C@]2(C)CC(N)=O.[Co+3].[OH-] [B12 HC, hydroxocobalamin] | could not be detected | 116.4% | 116% | 33.6% | 20.3% | 18.8% | N/Q | completely disappeared | 115.6% |  |  |  |  |  | 
O=[Se](O)O [selenite, sodium selenite] |  |  |  |  |  |  |  |  |  | > 80% | about 5 months | above 80% | 87.2% | 87.7% | decreased significantly
